The results in this text go back to patent publication US20120053076A1, “METHODS FOR IDENTIFICATION” (Cambridge Enterprise Limited, priority 2009, published 2012).

The test system of data set [1] is rat peripheral blood leukocytes. Put plainly: Rat chemokine-induced PBMC migration assay. The class given is cell-based. The settings on record: Table 3; GH suppression vs rat PBMC migration.
Data set [2] concerns THP-1 cells. Put plainly: MCP-1 induced THP-1 cell migration, Transwell assay. In kind it is cell-based, human. The settings on record: for “Classical”:“BSCI” potency ratio Human: Table 3, insulin suppression vs THP-1 migration; for RATIO: classical vs BSCI potency. The procedure:
Leukocyte migration was measured using the 96-well format micro Transwell® assay system from Neuroprobe (Gaithersburg, Md., USA). In principle, this assay consists of two chambers separated by a porous membrane. The chemoattractant is placed in the lower compartment and the cells are placed in the upper compartment.
The method was performed essentially as previously described (Reckless & Grainger (1999) Biochem. J. 340:803-11).
First, the cell suspension to be placed in the upper compartment was prepared. The THP-1 cells were pelleted by centrifugation (770×g; 4 mins) and washed with Geys Balanced Salt Solution with 1 mg/ml BSA (GBSS+BSA). This wash was then repeated, and the cells re-pelleted before being resuspended in a small volume of GBSS+BSA for counting, for example using a standard haemocytometer.
The volume of GBSS+BSA was then adjusted depending on the number of cells present so that the cells were at final density of 4.45×10^6 cells per ml of GBSS+BSA. This ensured that there were 100,000 THP-1 cells in each 25 μl of the solution to be placed in the upper chamber of the plate.
The suspension of THP-1 cells at 4.45×10^6 cells/ml was divided into three pots. […] To the second pot, the BSCI was added at the same concentration as in the first pot, but additionally the sstr2 antagonist was also added (for example BIM 23454 [Tulipano et al. (2002) 143:1218-24] or BIM 23627 were added at 66 nM final concentration from a stock solution in GBSS). To the third pot, GBSS+BSA plus vehicle as appropriate was added so that the volumes in three pots are equal, acting as a control.
Next, the chemoattractant solution to be placed in the lower compartment was prepared. MCP-1 was diluted in GBSS+BSA to give a final concentration of 25 ng/ml (after all additions). Note that, as recommended by Frow et al (Med. Res. Rev. 24:276-98) this is the concentration of MCP-1 which induces maximal migration in this system. This solution was divided into three pots, as for the cell suspension. To one pot, the BSCI was added to the same final concentration as was added to the cell suspension, in the second pot the BSCI and the sstr2 antagonist were both added at the same concentration as previously added to the cell suspension, while to the remaining pot GBSS+BSA plus vehicle as appropriate was added so that the volumes in the three pots were equal.
Once the chemoattractant solutions for the lower wells and cell solutions for the upper chambers were prepared, the migration chamber was assembled. 29 μl of the appropriate chemoattractant solution was placed into the lower well of the chamber. Assays were performed with at least triplicate determinations of each condition. Once all the lower chambers were filled, the porous membrane was applied to the chamber in accordance with the manufacturer's instructions. Finally, 25 μl of the appropriate cell solution was applied to each upper chamber. A plastic lid was placed over the entire apparatus to prevent evaporation.
The assembled chamber was incubated at 37° C., 5% CO2, for 2 hours.
At the end of the incubation, the liquid cell suspension was gently removed from the upper chamber, 20 μl of ice-cold 20 mM EDTA in PBS was added to the upper chamber, and the apparatus was incubated at 4° C. for 15 mins. This procedure caused any cells adhering to the underside of the membrane to fall into the lower chamber.
After this incubation the filter was carefully flushed with GBSS+BSA to wash off the EDTA, and then the filter was removed.
The number of cells migrated into the lower chamber under each condition can then be determined by a number of methods, including direct counting, labelling with fluorescent or radioactive markers or through the use of a vital dye. Typically, we utilised the vital dye MTT.

Regarding `O=C1NCCCC[C@@H]1NC(=O)C12CC3CC(CC(C3)C1)C2` [BN83470, (S)-3-(admantane-1′-carbonylamino)-caprolactam], in data set [1], the ““Classical”:“BSCI” potency ratio Rat” value is on record as 0.0008. Also, in data set [2], the ““Classical”:“BSCI” potency ratio Human” value is recorded as under 0.00008.

In the case of `C[C@@H](c1c[nH]c2ccccc12)[C@@H](NC(=O)N1CCC(n2c(=O)[nH]c3ccccc32)CC1)C(=O)NC[C@@H]1CCC[C@H](CN)C1` [L-779,976], the ““Classical”:“BSCI” potency ratio Human” value in data set [2] worked out at 27. Also, the RATIO in data set [2] (Table 4) and in data set [2] (Table 5) was 26.5 each time.

On to `CC(C)(C)C(=O)N[C@H]1CCCNC1=O` [Valerolactam, (S)-3-(2′,2′-dimethylpropionoylamino)-tetrahydropyridin-2-one], for which the ““Classical”:“BSCI” potency ratio Rat” value in data set [1] was 0.0009. Besides, the ““Classical”:“BSCI” potency ratio Human” value in data set [2] is recorded as under 0.00005.

Regarding “(S)-3-(2′,2′-dimethyldodecanoyl)amino-caprolactam [BN83250]”, in data set [2] (Table 5), the RATIO was under 0.00009.
